The whole screen tested about 400,000 compounds, of which about 3,700 (0.93%) were called active. The shares of active, inactive and inconclusive entries below differ from those in the screen. Calls come from the whole dose curve; as a rule, active = well fitted inhibition curve with a large enough effect; inconclusive = small, poorly fitted or top-dose-only effect, or another doubt; inactive = no such curve, though single readings can be large or run the other way. A potency beside an inconclusive call is a rough fit, not a confirmed value.
biological target: Vitamin D3 receptor (Homo sapiens) (UniProt P11473); assay: Inhibitors of the vitamin D receptor (VDR): qHTS; conditions: VDR-SRC2-3 peptide fluorescence polarization, 2 h; max response, negative = inhibition: active compounds read low
Outline: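 FP read-out; VDR + SRC2-3 coactivator peptide; 23 nl compound by pintool; 2 h RT incubation; reagents held at 4 deg C, protected from light.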
% is set by controls: 0 for no effect and ±100 for the full control effect; potency is the fitted concentration of half-maximal effect.

Protein sequences, listed by entry. Tags and fused reporters are not part of them. Lines headed by an entry give the natural chain unless they say otherwise; changes in a name come on top.
UniProt P11473: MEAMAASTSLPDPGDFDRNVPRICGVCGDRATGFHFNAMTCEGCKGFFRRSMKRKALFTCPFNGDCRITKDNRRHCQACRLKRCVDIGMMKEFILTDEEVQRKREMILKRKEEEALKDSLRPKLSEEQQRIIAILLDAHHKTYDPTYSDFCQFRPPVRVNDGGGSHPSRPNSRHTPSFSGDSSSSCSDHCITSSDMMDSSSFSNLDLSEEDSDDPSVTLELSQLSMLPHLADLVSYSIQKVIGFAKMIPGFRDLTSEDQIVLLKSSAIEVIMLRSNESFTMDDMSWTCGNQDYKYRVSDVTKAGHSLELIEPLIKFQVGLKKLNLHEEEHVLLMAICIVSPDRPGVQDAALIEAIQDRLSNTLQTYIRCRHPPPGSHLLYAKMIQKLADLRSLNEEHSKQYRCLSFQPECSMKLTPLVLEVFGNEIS

Potency, active:
O=c1[nH]c2ccc(Cl)cc2c(-c2ccccc2)c1SC(=S)N1CCOCC1 89.1 µM
C=C(CN(C)C)C(=O)c1ccc(OC2OC(COC(C)=O)C(OC(C)=O)C(OC(C)=O)C2OC(C)=O)cc1 (centres undefined) 39.8 µM
c1ccc(CNc2ncnc3ccc(-c4ccoc4)cc23)cc1 25.1 µM
CCC(=O)OCOc1ccc(/C=C2/CCC(CN(C)C)C2=O)cc1 (centres undefined) 10 µM
Cc1ccc(C(=O)Nc2nc(-c3ccccn3)cs2)cc1S(=O)(=O)N1CCOCC1 79.4 µM
O=C(CCNc1ccc(Br)cc1)c1cccc([N+](=O)[O-])c1 89.1 µM
CCOC(=O)c1nn(-c2ccc(F)cc2)c(=O)c2c(N)scc12 7.94 µM
CC(=O)OC1CC(OC(C)=O)[C@]2(C)C(CC(=O)[C@]3(C)C2CC[C@@]2(C)C(c4ccoc4)OC(=O)C4O[C@@]423)C1(C)C (some centres undefined) 28.2 µM

Potency, inconclusive:
O=C1C2=C(c3ccccc31)[N+](=O)C1CCCCC1N2[O-] (centres undefined) 56.2 µM [inhibitor, partial curve, poor fit]
C#Cc1ccc([C@@H]2C=C(C(=O)OCC=C)O[C@H](OCc3ccc(CO)cc3)C2)cc1 79.4 µM [inhibitor, partial curve, poor fit]
NS(=O)(=O)c1ccc(O)c(NC(=O)c2ccc([N+](=O)[O-])o2)c1 50.1 µM [inhibitor, partial curve, poor fit]
CCCn1c(=O)c2ccccc2n2c(SCC(=O)/C(C#N)=C(\C)N)nnc12 89.1 µM [inhibitor, single point]
Cc1cccnc1NC(=O)Cn1nc(-c2ccccc2)oc1=S 70.8 µM [inhibitor, partial curve, poor fit]
CN(C)N=Nc1ccc(-c2cn(Cc3ccccc3)cn2)cc1 56.2 µM [inhibitor, partial curve, poor fit]
N#Cc1cccc(N=c2ssnc2Cl)c1 25.1 µM [inhibitor, partial curve, poor fit]
CCN(CC)c1nc(N)c2c(N)nc(OC)cc2c1C#N 20 µM [inhibitor, full curve]
CC1(OC(=O)c2ccco2)C(=O)C=C2C=C(C3CC3)OC=C2C1=O (centres undefined) 89.1 µM [inhibitor, partial curve, poor fit]
N#CCc1c(C#N)c(N)nc(N2CCN(C=O)CC2)c1C#N 63.1 µM [inhibitor, partial curve, poor fit]
O=C1CCC(CCc2nc3ccccc3[nH]2)(c2ccccc2)C(=O)N1 (centres undefined) 89.1 µM [inhibitor, single point]
Cc1nc(C(C)NC(=O)CCc2nnc(CCCc3ccccc3)o2)c(C)s1 (centres undefined) 89.1 µM [inhibitor, single point]
CC(C)(C)c1ccc(/C=C(\c2nc3ccccc3[nH]2)S(=O)(=O)c2ccccc2)cc1 31.6 µM [inhibitor, partial curve, poor fit]
Cc1cc(O)c(C(C)C)cc1NC(=O)c1ccccc1Cl 79.4 µM [inhibitor, partial curve]
Cc1ccc(NC(=O)Cc2nn(C)c(=O)c3ccccc23)cc1F 25.1 µM [inhibitor, partial curve, poor fit]
COc1ccccc1-c1noc(-c2cc(OC)c(OC)c(OC)c2)n1 15.8 µM [inhibitor, partial curve, poor fit]
CCN(CC)CC1CCN(c2ncc3ncnc(Nc4ccc(F)c(Cl)c4)c3n2)CC1 56.2 µM [inhibitor, partial curve, poor fit]
CC(=O)Nc1cccc(NC(=O)CSc2nccn2Cc2ccc(F)cc2)c1 44.7 µM [inhibitor, partial curve]
O=C(COC(=O)c1ccccc1O)NNC(=O)c1ccc(Br)cc1 89.1 µM [inhibitor, single point]
CCOc1cccc(-c2c(C(=O)N/N=C/c3ccc(C)o3)nnn2-c2nonc2N)c1 8.91 µM [inhibitor, partial curve, poor fit]
CNc1ccc(Br)cc(C(=O)/C=C/c2cccc(OC)c2)c1=O 50.1 µM [inhibitor, partial curve, poor fit]
Cc1oc2ccc(OS(C)(=O)=O)cc2c1C(=O)OC(C)C 79.4 µM [inhibitor, partial curve, poor fit]
Cc1ccc(NC(=O)CCN2C(=O)c3ccccc3C2=O)c(C)c1 89.1 µM [inhibitor, single point]
C#CCOCCOCCOCCNc1nc(N2CCN(C(=O)[C@H](CCC(=O)O)n3cc(C(N)CC(C)C)nn3)CC2)nc(N2CCN(C(=O)[C@H](Cc3cc4ccccc4[nH]3)n3cc(C(N)[C@H](C)CC)nn3)CC2)n1 (some centres undefined) 89.1 µM [inhibitor, single point]
CCOC(=O)c1cc2c(=Cc3ccc(N(C)C)cc3)c3ccccc3n2[n+]1C 100 µM [inhibitor, single point]
c1ccc(-c2ccc(C3=Nn4c(Cn5nnc6ccccc65)nnc4SC3)cc2)cc1 25.1 µM [inhibitor, full curve, poor fit]
COc1ccc(S(=O)(=O)N2c3ccccc3OCC2CC(=O)O)cc1 (centres undefined) 4.47 µM [inhibitor, full curve, poor fit]
O=C(/C=C/c1cccc(F)c1)Nc1ccc(S(=O)(=O)N2CCOCC2)cc1 89.1 µM [inhibitor, single point]
Cc1ccc2oc(=O)cc(CN3CCN(C/C=C/c4ccccc4)CC3)c2c1 89.1 µM [inhibitor, partial curve, poor fit]
O=C(NCCc1ccccc1)C(c1cccs1)N(C(=O)CCl)c1ccc(Cl)cc1 (centres undefined) 89.1 µM [inhibitor, single point]
CCOc1ccccc1/C=C\c1nc(O)c([N+](=O)[O-])c(=O)[nH]1 20 µM [inhibitor, full curve, poor fit]
CCOC(=O)/C(C#N)=C/C=C1\C=Cc2ccccc2N1CC 89.1 µM [inhibitor, single point]
CCc1ccc(-n2nc3cc(C)c(N)cc3n2)cc1 56.2 µM [inhibitor, partial curve, poor fit]
Cc1cccc(N2CCN(C(=O)c3ccccc3NC(=O)C3=CSCCO3)CC2C)c1 (centres undefined) 39.8 µM [inhibitor, single point]
CC1CC(C)CN(CC(=O)N2CCOCC2)C1 (centres undefined) 79.4 µM [inhibitor, partial curve]
COc1cccc(/C=N/NC(=O)CCc2n[nH]c(=O)[nH]c2=O)c1O 100 µM [inhibitor, partial curve, poor fit]
Nc1nc(NC(=O)c2ccc(F)cc2)ns1 79.4 µM [inhibitor, single point]
COc1ccc(C(=O)N/N=C(/C)c2ccc(N3CCCCC3)cc2)cc1 35.5 µM [inhibitor, partial curve, poor fit]
O=C(/C=C/c1ccc(Cl)cc1Cl)n1cccn1 28.2 µM [inhibitor, partial curve, poor fit]
CCOC(=O)CC(=O)c1sc2c(c1N)c(=O)[nH]c(=O)n2-c1ccc(OC)cc1 100 µM [inhibitor, partial curve, poor fit]

Arranged by SMILES length (low to high): 5 of the compounds above
Potency, inconclusive:
COc1ccccc1-c1noc(-c2cc(OC)c(OC)c(OC)c2)n1 15.8 µM [inhibitor, partial curve, poor fit]
Cc1nc(C(C)NC(=O)CCc2nnc(CCCc3ccccc3)o2)c(C)s1 (centres undefined) 89.1 µM [inhibitor, single point]
CCOc1ccccc1/C=C\c1nc(O)c([N+](=O)[O-])c(=O)[nH]1 20 µM [inhibitor, full curve, poor fit]
O=C(/C=C/c1cccc(F)c1)Nc1ccc(S(=O)(=O)N2CCOCC2)cc1 89.1 µM [inhibitor, single point]
NS(=O)(=O)c1ccc(O)c(NC(=O)c2ccc([N+](=O)[O-])o2)c1 50.1 µM [inhibitor, partial curve, poor fit]

Next part:

Max response, negative = inhibition, inactive:
CCSc1ccc(-c2cccc([N+](=O)[O-])c2)nn1 16.1%
Cc1ccc(N2CC(C(=O)NC3CC3)CC2=O)cc1Cl (centres undefined) 0.112%
Oc1ccccc1-c1cc(-c2ccco2)[nH]n1 -19.2%
CCOc1cc(-c2nc(-c3ccc(-c4ccccc4)nc3OCC)no2)cc(OCC)c1OCC 18%
CC(=O)N1CN(Cc2ccccn2)Cc2c1sc1c2CCCC1 -7.58%
O=C(NCc1ccncc1)C1=NN(c2ccccc2)C(=O)CC1 -23.4%
Cc1ccc(C(=O)Nc2ccccc2Cl)cc1 6.77%
Cc1cccc(N(CC(=O)Nc2ccccc2C(F)(F)F)S(=O)(=O)c2ccccc2)c1C 18.6%
COc1ccccc1N1C(=O)C2C(c3ccc(F)cc3)NN(C(=O)c3ccc(C)cc3)C2C1=O (centres undefined) 9.81%
O=C(CSC(=S)N1CCCC1)NCC(=O)Nc1ccccc1Br -12.1%
CC(C)(Cc1ccc(O)cc1)NC(=O)CC(=O)N/N=C/c1ccc([N+](=O)[O-])cc1 6.82%
C[C@@H]1O[C@@H](OC[C@@H]2O[C@H](Oc3c(-c4ccc(O)cc4)oc4cc(O)cc(O)c4c3=O)[C@@H](O)[C@H](O)[C@H]2O)[C@H](O)[C@H](O)[C@H]1O 30.3%
CCc1ccc(-n2nc(CO)c(C(=O)NCCOC)n2)cc1 2.09%
CN(C(=O)CC(=O)Nc1ccc2nc3n(c(=O)c2c1)CCCCC3)c1ccccc1F -7.71%
Cc1occc1-c1n[nH]c(=S)n1-c1ccccc1 -16.1%
Cc1cc(C)cc(-n2ncc3c2CCCC3NC(=O)c2cc(C)oc2C)c1 (centres undefined) -19.4%

From PubChem BioAssay AID504847 (National Center for Advancing Translational Sciences (NCATS), 2011)
